No constants are given. Whether binding was seen depends on the method and setting. Tags and fused reporters may be left off the sequences shown.

Amino acid sequences for entries named in this document (tags omitted).
UniProt Q9Y572: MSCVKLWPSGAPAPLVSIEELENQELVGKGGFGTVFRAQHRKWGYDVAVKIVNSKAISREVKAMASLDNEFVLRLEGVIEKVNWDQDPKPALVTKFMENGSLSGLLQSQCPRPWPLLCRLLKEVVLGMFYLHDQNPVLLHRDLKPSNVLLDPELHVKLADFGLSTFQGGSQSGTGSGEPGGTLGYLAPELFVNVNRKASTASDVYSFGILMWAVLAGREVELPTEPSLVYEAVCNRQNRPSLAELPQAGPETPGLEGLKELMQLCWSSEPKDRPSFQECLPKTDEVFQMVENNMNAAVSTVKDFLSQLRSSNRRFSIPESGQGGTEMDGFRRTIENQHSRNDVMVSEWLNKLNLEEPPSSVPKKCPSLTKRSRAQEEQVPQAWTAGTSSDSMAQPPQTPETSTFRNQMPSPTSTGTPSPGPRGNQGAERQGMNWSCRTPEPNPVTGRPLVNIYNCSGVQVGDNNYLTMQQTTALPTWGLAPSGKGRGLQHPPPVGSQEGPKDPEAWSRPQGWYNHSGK

These results are taken from PMC8867111.

The target of the test is T1, GST-TRIM34 (UniProt Q9BYJ4).
T1 sequence: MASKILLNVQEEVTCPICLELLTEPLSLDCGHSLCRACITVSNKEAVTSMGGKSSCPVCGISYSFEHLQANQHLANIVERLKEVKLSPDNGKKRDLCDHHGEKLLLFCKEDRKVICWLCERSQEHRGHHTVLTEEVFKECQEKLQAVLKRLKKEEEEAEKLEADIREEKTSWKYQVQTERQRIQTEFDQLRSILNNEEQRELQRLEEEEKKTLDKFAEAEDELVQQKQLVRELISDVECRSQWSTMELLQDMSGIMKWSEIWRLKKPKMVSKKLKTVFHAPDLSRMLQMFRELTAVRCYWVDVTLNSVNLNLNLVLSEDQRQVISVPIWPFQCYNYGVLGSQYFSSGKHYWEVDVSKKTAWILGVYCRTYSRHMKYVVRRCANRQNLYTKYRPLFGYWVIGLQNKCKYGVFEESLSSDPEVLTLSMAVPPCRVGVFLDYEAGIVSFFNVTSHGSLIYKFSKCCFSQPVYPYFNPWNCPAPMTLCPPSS
The test can be described thus: pull-down; purified GST-TRIM34, His-RIPK3 and His-ZBP1 mixed (3.2 nM) in various combinations, immunoprecipitated with the indicated antibody, Western blot; both purified. On the technique in general: A western blot detects proteins with antibodies after separation by electrophoresis.

Consider His-RIPK3 (from UniProt Q9Y572 1-518), for which the binding result is “no binding (tested: 3.2 nM)”.
